Assay results reported in doi:10.1101/2022.01.12.475930.
Results are given in words; binding and its absence hold for the method and conditions named. In cells and extracts the contact can be indirect. Some binding calls cover weakened binding; strength is not graded here. Values belong to the binder of their own block, whether it stands above or below them.

Columns and labels:
[1] = biological target: T1, FLOT2 (human (endogenous in HEK293)) (UniProt Q14254); assay: co-IP
T1 sequence: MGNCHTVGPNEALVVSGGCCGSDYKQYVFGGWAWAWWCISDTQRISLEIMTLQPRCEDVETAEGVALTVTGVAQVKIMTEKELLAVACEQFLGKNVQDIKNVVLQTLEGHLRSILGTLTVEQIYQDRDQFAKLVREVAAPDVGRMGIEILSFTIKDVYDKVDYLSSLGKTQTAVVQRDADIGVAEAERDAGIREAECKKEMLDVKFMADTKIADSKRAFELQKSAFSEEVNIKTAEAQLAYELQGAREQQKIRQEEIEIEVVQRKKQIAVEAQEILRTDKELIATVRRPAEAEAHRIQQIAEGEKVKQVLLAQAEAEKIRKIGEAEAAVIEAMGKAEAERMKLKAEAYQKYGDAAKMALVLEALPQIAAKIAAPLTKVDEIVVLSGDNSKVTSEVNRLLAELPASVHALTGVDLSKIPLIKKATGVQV

[2] = biological target: T1, FLOT2 (human (endogenous in HEK293)); assay: cross-linking
[3] = biological target: T2, FLOT1 (human (endogenous in HEK293)) (UniProt O75955); assay: co-IP
T2 sequence: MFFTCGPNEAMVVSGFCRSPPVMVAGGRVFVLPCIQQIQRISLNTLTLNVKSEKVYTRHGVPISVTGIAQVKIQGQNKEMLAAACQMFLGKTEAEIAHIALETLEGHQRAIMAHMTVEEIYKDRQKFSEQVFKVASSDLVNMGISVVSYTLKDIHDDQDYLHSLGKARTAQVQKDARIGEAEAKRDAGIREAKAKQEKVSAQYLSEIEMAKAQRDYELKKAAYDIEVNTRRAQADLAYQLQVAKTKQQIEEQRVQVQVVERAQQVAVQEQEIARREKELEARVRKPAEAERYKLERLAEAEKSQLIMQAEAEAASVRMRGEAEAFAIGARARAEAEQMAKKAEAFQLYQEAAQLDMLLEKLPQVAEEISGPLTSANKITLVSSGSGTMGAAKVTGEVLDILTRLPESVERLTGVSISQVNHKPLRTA

binding [1]: binds
binding [2]: binds
B1: FLOT1 (protein, UniProt O75955 1-427)
chain: T2 sequence

binding [3]: binds
binding [1]: binds
B2: LPHN1 (receptor, UniProt O94910 25-1474)
chain: LSRAGLPFGLMRRELACEGYPIELRCPGSDVIMVENANYGRTDDKICDADPFQMENVQCYLPDAFKIMSQRCNNRTQCVVVAGSDAFPDPCPGTYKYLEVQYDCVPYKVEQKVFVCPGTLQKVLEPTSTHESEHQSGAWCKDPLQAGDRIYVMPWIPYRTDTLTEYASWEDYVAARHTTTYRLPNRVDGTGFVVYDGAVFYNKERTRNIVKYDLRTRIKSGETVINTANYHDTSPYRWGGKTDIDLAVDENGLWVIYATEGNNGRLVVSQLNPYTLRFEGTWETGYDKRSASNAFMVCGVLYVLRSVYVDDDSEAAGNRVDYAFNTNANREEPVSLTFPNPYQFISSVDYNPRDNQLYVWNNYFVVRYSLEFGPPDPSAGPATSPPLSTTTTARPTPLTSTASPAATTPLRRAPLTTHPVGAINQLGPDLPPATAPVPSTRRPPAPNLHVSPELFCEPREVRRVQWPATQQGMLVERPCPKGTRGIASFQCLPALGLWNPRGPDLSNCTSPWVNQVAQKIKSGENAANIASELARHTRGSIYAGDVSSSVKLMEQLLDILDAQLQALRPIERESAGKNYNKMHKRERTCKDYIKAVVETVDNLLRPEALESWKDMNATEQVHTATMLLDVLEEGAFLLADNVREPARFLAAKENVVLEVTVLNTEGQVQELVFPQEEYPRKNSIQLSAKTIKQNSRNGVVKVVFILYNNLGLFLSTENATVKLAGEAGPGGPGGASLVVNSQVIAASINKESSRVFLMDPVIFTVAHLEDKNHFNANCSFWNYSERSMLGYWSTQGCRLVESNKTHTTCACSHLTNFAVLMAHREIYQGRINELLLSVITWVGIVISLVCLAICISTFCFLRGLQTDRNTIHKNLCINLFLAELLFLVGIDKTQYEIACPIFAGLLHYFFLAAFSWLCLEGVHLYLLLVEVFESEYSRTKYYYLGGYCFPALVVGIAAAIDYRSYGTEKACWLRVDNYFIWSFIGPVSFVIVVNLVFLMVTLHKMIRSSSVLKPDSSRLDNIKSWALGAIALLFLLGLTWAFGLLFINKESVVMAYLFTTFNAFQGVFIFVFHCALQKKVHKEYSKCLRHSYCCIRSPPGGTHGSLKTSAMRSNTRYYTGTQSRIRRMWNDTVRKQTESSFMAGDINSTPTLNRGTMGNHLLTNPVLQPRGGTSPYNTLIAESVGFNPSSPPVFNSPGSYREPKHPLGGREACGMDTLPLNGNFNNSYSLRSGDFPPGDGGPEPPRGRNLADAAAFEKMIISELVHNNLRGSSSAAKGPPPPEPPVPPVPGGGGEEEAGGPGGADRAEIELLYKALEEPLLLPRAQSVLYQSDLDESESCTAEDGATSRPLSSPPGRDSLYASGANLRDSPSYPDSSPEGPSEALPPPPPAPPGPPEIYYTSRPPALVARNPLQGYYQVRRPSHEGYLAAPGLEGPGPDGDGQMQLVTSL

binding [3]: binds
binding [1]: binds
B3: LPHN2 (receptor, UniProt O95490 26-1459)
chain: FSRAALPFGLVRRELSCEGYSIDLRCPGSDVIMIESANYGRTDDKICDADPFQMENTDCYLPDAFKIMTQRCNNRTQCIVVTGSDVFPDPCPGTYKYLEVQYECVPYIFVCPGTLKAIVDSPCIYEAEQKAGAWCKDPLQAADKIYFMPWTPYRTDTLIEYASLEDFQNSRQTTTYKLPNRVDGTGFVVYDGAVFFNKERTRNIVKFDLRTRIKSGEAIINYANYHDTSPYRWGGKTDIDLAVDENGLWVIYATEQNNGMIVISQLNPYTLRFEATWETVYDKRAASNAFMICGVLYVVRSVYQDNESETGKNSIDYIYNTRLNRGEYVDVPFPNQYQYIAAVDYNPRDNQLYVWNNNFILRYSLEFGPPDPAQVPTTAVTITSSAELFKTIISTTSTTSQKGPMSTTVAGSQEGSKGTKPPPAVSTTKIPPITNIFPLPERFCEALDSKGIKWPQTQRGMMVERPCPKGTRGTASYLCMISTGTWNPKGPDLSNCTSHWVNQLAQKIRSGENAASLANELAKHTKGPVFAGDVSSSVRLMEQLVDILDAQLQELKPSEKDSAGRSYNKLQKREKTCRAYLKAIVDTVDNLLRPEALESWKHMNSSEQAHTATMLLDTLEEGAFVLADNLLEPTRVSMPTENIVLEVAVLSTEGQIQDFKFPLGIKGAGSSIQLSANTVKQNSRNGLAKLVFIIYRSLGQFLSTENATIKLGADFIGRNSTIAVNSHVISVSINKESSRVYLTDPVLFTLPHIDPDNYFNANCSFWNYSERTMMGYWSTQGCKLVDTNKTRTTCACSHLTNFAILMAHREIAYKDGVHELLLTVITWVGIVISLVCLAICIFTFCFFRGLQSDRNTIHKNLCINLFIAEFIFLIGIDKTKYAIACPIFAGLLHFFFLAAFAWMCLEGVQLYLMLVEVFESEYSRKKYYYVAGYLFPATVVGVSAAIDYKSYGTEKACWLHVDNYFIWSFIGPVTFIILLNIIFLVITLCKMVKHSNTLKPDSSRLENIKSWVLGAFALLCLLGLTWSFGLLFINEETIVMAYLFTIFNAFQGVFIFIFHCALQKKVRKEYGKCFRHSYCCGGLPTESPHSSVKASTTRTSARYSSGTQSRIRRMWNDTVRKQSESSFISGDINSTSTLNQGMTGNYLLTNPLLRPHGTNNPYNTLLAETVVCNAPSAPVFNSPGHSLNNARDTSAMDTLPLNGNFNNSYSLHKGDYNDSVQVVDCGLSLNDTAFEKMIISELVHNNLRGSSKTHNLELTLPVKPVIGGSSSEDDAIVADASSLMHSDNPGLELHHKELEAPLIPQRTHSLLYQPQKKVKSEGTDSYVSQLTAEAEDHLQSPNRDSLYTSMPNLRDSPYPESSPDMEEDLSPSRRSENEDIYYKSMPNLGAGHQLQMCYQISRGNSDGYIIPINKEGCIPEGDVREGQMQLVTSL

binding [3]: binds
binding [1]: binds
B4: LPHN3 (receptor, UniProt Q9HAR2 20-1447)
chain: FSRAPIPMAVVRRELSCESYPIELRCPGTDVIMIESANYGRTDDKICDSDPAQMENIRCYLPDAYKIMSQRCNNRTQCAVVAGPDVFPDPCPGTYKYLEVQYECVPYKVEQKVFLCPGLLKGVYQSEHLFESDHQSGAWCKDPLQASDKIYYMPWTPYRTDTLTEYSSKDDFIAGRPTTTYKLPHRVDGTGFVVYDGALFFNKERTRNIVKFDLRTRIKSGEAIIANANYHDTSPYRWGGKSDIDLAVDENGLWVIYATEQNNGKIVISQLNPYTLRIEGTWDTAYDKRSASNAFMICGILYVVKSVYEDDDNEATGNKIDYIYNTDQSKDSLVDVPFPNSYQYIAAVDYNPRDNLLYVWNNYHVVKYSLDFGPLDSRSGQAHHGQVSYISPPIHLDSELERPSVKDISTTGPLGMGSTTTSTTLRTTTLSPGRSTTPSVSGRRNRSTSTPSPAVEVLDDMTTHLPSASSQIPALEESCEAVEAREIMWFKTRQGQIAKQPCPAGTIGVSTYLCLAPDGIWDPQGPDLSNCSSPWVNHITQKLKSGETAANIARELAEQTRNHLNAGDITYSVRAMDQLVGLLDVQLRNLTPGGKDSAARSLNKAMVETVNNLLQPQALNAWRDLTTSDQLRAATMLLHTVEESAFVLADNLLKTDIVRENTDNIKLEVARLSTEGNLEDLKFPENMGHGSTIQLSANTLKQNGRNGEIRVAFVLYNNLGPYLSTENASMKLGTEALSTNHSVIVNSPVITAAINKEFSNKVYLADPVVFTVKHIKQSEENFNPNCSFWSYSKRTMTGYWSTQGCRLLTTNKTHTTCSCNHLTNFAVLMAHVEVKHSDAVHDLLLDVITWVGILLSLVCLLICIFTFCFFRGLQSDRNTIHKNLCISLFVAELLFLIGINRTDQPIACAVFAALLHFFFLAAFTWMFLEGVQLYIMLVEVFESEHSRRKYFYLVGYGMPALIVAVSAAVDYRSYGTDKVCWLRLDTYFIWSFIGPATLIIMLNVIFLGIALYKMFHHTAILKPESGCLDNIKSWVIGAIALLCLLGLTWAFGLMYINESTVIMAYLFTIFNSLQGMFIFIFHCVLQKKVRKEYGKCLRTHCCSGKSTESSIGSGKTSGSRTPGRYSTGSQSRIRRMWNDTVRKQSESSFITGDINSSASLNREGLLNNARDTSVMDTLPLNGNHGNSYSIASGEYLSNCVQIIDRGYNHNETALEKKILKELTSNYIPSYLNNHERSSEQNRNLMNKLVNNLGSGREDDAIVLDDATSFNHEESLGLELIHEESDAPLLPPRVYSTENHQPHHYTRRRIPQDHSESFFPLLTNEHTEDLQSPHRDSLYTSMPTLAGVAATESVTTSTQTEPPPAKCGDAEDVYYKSMPNLGSRNHVHQLHTYYQLGRGSSDGFIVPPNKDGTPPEGSSKGPAHLVTSL
